Test results published in publication PMC8954547, “Nonpeptidic Z360-Analogs Tagged with Trivalent Radiometals as Anti-CCK2R Cancer Theranostic Agents: A Preclinical Study” (Pharmaceutics, 2022).
No constants are given. Whether binding was seen depends on the method and setting. Binding calls can cover weak binding; strength is not graded here.

Target: human CCK2i4svR splice variant of the cholecystokinin subtype 2 receptor (human)
Experiment: radioligand binding; competition format: 50 pM [125I][I-Tyr12,Leu15]gastrin-17 with HEK293-CCK2i4svR membrane homogenate and increasing concentrations (10^-13-10^-6 M) of nonpeptidic Z360 analogs; 50 mM HEPES pH 7.4, 1% BSA, 5.5 mM MgCl2, 35 uM bacitracin; 1 h at 22 °C; filtration through GF/B filters; only the binder purified

binding: binds
Binder: QGPWLEEEEEAYGWLDF (pGlu at position 1; 125I-iodo-Tyr at position 12; C-terminal amide) [[125I][I-Tyr12,Leu15]gastrin-17]
